Drawing on the supplement of paper PMC9233669, this text covers self-aminoacylation for 23 sequences.

Variants at the floor of the assay are shown more often than the library holds them.

The test system of one data set is biotinyl-Leu-oxazolone. Briefly: self-aminoacylation, catalytic enhancement (BLO) (fold over background); higher = more active; k-Seq, kA / k0A0; sequences stand for … in GGGAAUGGAUCCACAUCUACGAAUUC…UUCACUGCAGACUUGACGAAGCUG
Summed up:
(§1)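 Working in 50 μL HEPES/NaCl/KCl/MgCl2/CaCl2 buffer with 5% acetonitrile at pH 6.9–7.0, mutagenized RNA pools (0.43 μM; 21-nt variable region) were reacted with 2–1250 μM of each biotinyl-aminoacyl-oxazolone for 90 minutes at room temperature. Streptavidin capture followed, with quantification by triplicate qPCR and Illumina sequencing. Catalytic enhancement is reported as median kA over the uncatalyzed rate, the low-activity peak of a bimodal Gaussian fit to the data.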

Another data set concerns biotinyl-Met-oxazolone. The experiment in a line: self-aminoacylation, catalytic enhancement (BMO) (fold over background); higher = more active; k-Seq, kA / k0A0; sequences stand for … in GGGAAUGGAUCCACAUCUACGAAUUC…UUCACUGCAGACUUGACGAAGCUG
Summed up:
as §1

For a further data set, the system named is biotinyl-Phe-oxazolone. The experiment in a line: self-aminoacylation, catalytic enhancement (BFO) (fold over background); higher = more active; k-Seq, kA / k0A0; sequences stand for … in GGGAAUGGAUCCACAUCUACGAAUUC…UUCACUGCAGACUUGACGAAGCUG
Summed up:
as §1

The next data set has as its system biotinyl-Ile-oxazolone. The experiment in a line: self-aminoacylation, catalytic enhancement (BIO) (fold over background); higher = more active; k-Seq, kA / k0A0; sequences stand for … in GGGAAUGGAUCCACAUCUACGAAUUC…UUCACUGCAGACUUGACGAAGCUG
Summed up: as §1

The test system of a further data set is biotinyl-Trp-oxazolone. The experiment in a line: self-aminoacylation, catalytic enhancement (BWO) (fold over background); higher = more active; k-Seq, kA / k0A0; sequences stand for … in GGGAAUGGAUCCACAUCUACGAAUUC…UUCACUGCAGACUUGACGAAGCUG
Summed up: as §1

The test system of a further data set is biotinyl-Val-oxazolone. Briefly: self-aminoacylation, catalytic enhancement (BVO) (fold over background); higher = more active; k-Seq, kA / k0A0; sequences stand for … in GGGAAUGGAUCCACAUCUACGAAUUC…UUCACUGCAGACUUGACGAAGCUG
Summed up: as §1

With “AUUACCCUGGUCAUCGAGACA [Fam2.1 aminoacylation ribozyme variant]”, the self-aminoacylation turned out to be 1.21 in the data set on biotinyl-Leu-oxazolone; 1.11 in the data set on biotinyl-Met-oxazolone; 1.92 in the data set with biotinyl-Phe-oxazolone; 0.999 with biotinyl-Ile-oxazolone; 0.531 with biotinyl-Trp-oxazolone; 1.19 in the data set with biotinyl-Val-oxazolone.
For “CCACACCUGAAGCAAUCGGUC [Fam1B.1 aminoacylation ribozyme variant]”, the self-aminoacylation with biotinyl-Leu-oxazolone stood at 0.946; in the data set on biotinyl-Met-oxazolone, 0.903; in the data set on biotinyl-Phe-oxazolone, 0.952; in the data set on biotinyl-Ile-oxazolone, 1.01; with biotinyl-Trp-oxazolone, 0.911; in the data set on biotinyl-Val-oxazolone, 1.18.
As for “CCACACUUAGAGCAAUCGGUC [Fam1B.1 aminoacylation ribozyme variant]”, the self-aminoacylation was determined as 0.837 in the data set with biotinyl-Leu-oxazolone; 0.855 in the data set on biotinyl-Met-oxazolone; 1.07 in the data set on biotinyl-Phe-oxazolone; 1.01 with biotinyl-Ile-oxazolone; 0.71 with biotinyl-Trp-oxazolone; 1.05 in the data set on biotinyl-Val-oxazolone.
For “AAGUUUGCUCAUAGUCGUAAG [Fam3.1 aminoacylation ribozyme variant]”, the self-aminoacylation with biotinyl-Leu-oxazolone was found to be 0.805; in the data set on biotinyl-Met-oxazolone it was 1.29; with biotinyl-Phe-oxazolone, 14.6; with biotinyl-Ile-oxazolone, 0.922; in the data set on biotinyl-Trp-oxazolone it was 3.67; in the data set on biotinyl-Val-oxazolone, 0.91.
Take “AUUCACCUCGUUCAUCGGGUG [Fam2.2 aminoacylation ribozyme variant]”: the self-aminoacylation in the data set on biotinyl-Leu-oxazolone amounted to 5.48; in the data set with biotinyl-Met-oxazolone it was 4.1; in the data set with biotinyl-Phe-oxazolone, 26.3; with biotinyl-Ile-oxazolone it was 2.93; in the data set with biotinyl-Trp-oxazolone, 5; in the data set with biotinyl-Val-oxazolone it was 3.3.
On to “AUUACCCAGGUCAUCGAGCGA [Fam2.1 aminoacylation ribozyme variant]”, for which the self-aminoacylation in the data set on biotinyl-Leu-oxazolone is 1.73; with biotinyl-Met-oxazolone it was 1.92; with biotinyl-Phe-oxazolone, 1.14; with biotinyl-Ile-oxazolone, 1.53; in the data set on biotinyl-Trp-oxazolone it was 1.89; with biotinyl-Val-oxazolone, 1.79.
As to “CUACUUCAAACAACCGGUCAG [Fam1A.1 aminoacylation ribozyme variant]”, the self-aminoacylation came to 0.811 in the data set with biotinyl-Leu-oxazolone; 0.952 in the data set with biotinyl-Met-oxazolone; 0.921 with biotinyl-Phe-oxazolone; 1.03 in the data set with biotinyl-Ile-oxazolone; 0.98 in the data set with biotinyl-Trp-oxazolone; 0.974 with biotinyl-Val-oxazolone.
Take “CCACACUUUAAGCAAUCCGUC [Fam1B.1 aminoacylation ribozyme variant]”: the self-aminoacylation stood at 0.686 in the data set with biotinyl-Leu-oxazolone; 0.692 in the data set with biotinyl-Met-oxazolone; 0.861 in the data set on biotinyl-Phe-oxazolone; 0.966 with biotinyl-Ile-oxazolone; 0.644 in the data set on biotinyl-Trp-oxazolone; 1.16 in the data set with biotinyl-Val-oxazolone.
For “AAGUUUGCCAAUAGCCGCAAG [Fam3.1 aminoacylation ribozyme variant]”, the self-aminoacylation in the data set with biotinyl-Leu-oxazolone is 0.865; with biotinyl-Met-oxazolone, 1.2; in the data set on biotinyl-Phe-oxazolone it was 1.18; with biotinyl-Ile-oxazolone, 1.05; with biotinyl-Trp-oxazolone, 0.913; in the data set on biotinyl-Val-oxazolone, 1.25.
With “CCACACUUCAAGCAAUUGUUC [Fam1B.1 aminoacylation ribozyme variant]”, the self-aminoacylation with biotinyl-Leu-oxazolone was 0.479; with biotinyl-Met-oxazolone it was 0.644; in the data set on biotinyl-Phe-oxazolone, 1.03; in the data set on biotinyl-Ile-oxazolone, 0.676; with biotinyl-Trp-oxazolone it was 0.692; in the data set with biotinyl-Val-oxazolone it was 0.549.
As to “AAAUUUGCUAGUAGUCGCAAG [Fam3.1 aminoacylation ribozyme variant]”, the self-aminoacylation was 1.46 in the data set with biotinyl-Leu-oxazolone; 1.79 in the data set with biotinyl-Met-oxazolone; 1.5 with biotinyl-Phe-oxazolone; 1.83 in the data set with biotinyl-Ile-oxazolone; 1.59 in the data set with biotinyl-Trp-oxazolone; 1.36 with biotinyl-Val-oxazolone.
On to “CUACUUUAAACAAUCGGGCUG [Fam1A.1 aminoacylation ribozyme variant]”, for which the self-aminoacylation in the data set on biotinyl-Leu-oxazolone was determined as 1.07; in the data set with biotinyl-Met-oxazolone it was 1.25; with biotinyl-Phe-oxazolone it was 0.648; with biotinyl-Ile-oxazolone, 1.2; with biotinyl-Trp-oxazolone, 0.746; in the data set with biotinyl-Val-oxazolone it was 1.06.
For “CUAAUUCUAACAAUCGGUCUG [Fam1A.1 aminoacylation ribozyme variant]”, the self-aminoacylation in the data set on biotinyl-Leu-oxazolone was 0.624; with biotinyl-Met-oxazolone, 0.652; with biotinyl-Phe-oxazolone, 0.731; in the data set on biotinyl-Ile-oxazolone, 0.751; in the data set with biotinyl-Trp-oxazolone it was 0.474; in the data set with biotinyl-Val-oxazolone, 0.714.
For the sequence “CCACAUUUCGAGCAAUCGGUC [Fam1B.1 aminoacylation ribozyme variant]”, the self-aminoacylation with biotinyl-Leu-oxazolone is 1.62; in the data set with biotinyl-Met-oxazolone, 1.34; in the data set with biotinyl-Phe-oxazolone it was 1.04; in the data set on biotinyl-Ile-oxazolone, 1.75; in the data set on biotinyl-Trp-oxazolone, 1.48; in the data set with biotinyl-Val-oxazolone it was 1.52.
For the sequence “CCACACUUCAAGCAAUCAGAC [Fam1B.1 aminoacylation ribozyme variant]”, the self-aminoacylation in the data set with biotinyl-Leu-oxazolone was 0.654; with biotinyl-Met-oxazolone it was 0.715; in the data set with biotinyl-Phe-oxazolone it was 1.38; in the data set on biotinyl-Ile-oxazolone it was 0.885; in the data set with biotinyl-Trp-oxazolone it was 0.511; with biotinyl-Val-oxazolone, 0.865.
With “CCACGCUUCAAGCAAUUGGUC [Fam1B.1 aminoacylation ribozyme variant]”, the self-aminoacylation came out at 0.538 in the data set with biotinyl-Leu-oxazolone; 0.528 with biotinyl-Met-oxazolone; 1.34 in the data set on biotinyl-Phe-oxazolone; 0.551 in the data set on biotinyl-Ile-oxazolone; 0.704 in the data set on biotinyl-Trp-oxazolone; 0.516 with biotinyl-Val-oxazolone.
For the sequence “CCACACUUCAAGGAAUCGUUC [Fam1B.1 aminoacylation ribozyme variant]”, the self-aminoacylation is 0.464 in the data set on biotinyl-Leu-oxazolone; 0.495 in the data set with biotinyl-Met-oxazolone; 0.582 in the data set on biotinyl-Phe-oxazolone; 0.649 with biotinyl-Ile-oxazolone; 0.695 with biotinyl-Trp-oxazolone; 0.611 with biotinyl-Val-oxazolone.
Turning to “CUACUUCAAACAGUCGGUCAG [Fam1A.1 aminoacylation ribozyme variant]”, the self-aminoacylation was found to be 0.595 in the data set on biotinyl-Leu-oxazolone; 0.531 in the data set with biotinyl-Met-oxazolone; 0.663 in the data set on biotinyl-Phe-oxazolone; 0.571 in the data set with biotinyl-Ile-oxazolone; 0.652 in the data set on biotinyl-Trp-oxazolone; 0.508 in the data set with biotinyl-Val-oxazolone.
On to “CCACACUUCCAGCAAUCGGUA [Fam1B.1 aminoacylation ribozyme variant]”, for which the self-aminoacylation in the data set on biotinyl-Leu-oxazolone turned out to be 0.722; in the data set with biotinyl-Met-oxazolone, 1.04; in the data set on biotinyl-Phe-oxazolone, 0.863; in the data set with biotinyl-Ile-oxazolone, 1.25; in the data set on biotinyl-Trp-oxazolone, 1.07; in the data set on biotinyl-Val-oxazolone, 1.23.
With “CUACUUCAAACAAUCGGCCUC [Fam1A.1 aminoacylation ribozyme variant]”, the self-aminoacylation in the data set with biotinyl-Leu-oxazolone was found to be 1.89; in the data set on biotinyl-Met-oxazolone, 1.63; in the data set with biotinyl-Phe-oxazolone, 11.8; with biotinyl-Ile-oxazolone it was 1.8; in the data set on biotinyl-Trp-oxazolone it was 7.78; with biotinyl-Val-oxazolone, 1.88.
On to “CCACACUUCAAGCAAACGGAC [Fam1B.1 aminoacylation ribozyme variant]”, for which the self-aminoacylation was found to be 0.472 with biotinyl-Leu-oxazolone; 0.471 in the data set with biotinyl-Met-oxazolone; 0.936 in the data set on biotinyl-Phe-oxazolone; 0.593 in the data set with biotinyl-Ile-oxazolone; 0.422 in the data set on biotinyl-Trp-oxazolone; 0.763 with biotinyl-Val-oxazolone.
With “AUUCACCGAGGUAAUCGGGUG [Fam2.2 aminoacylation ribozyme variant]”, the self-aminoacylation worked out at 11.5 in the data set on biotinyl-Leu-oxazolone; 8.27 in the data set with biotinyl-Met-oxazolone; 60.4 in the data set on biotinyl-Phe-oxazolone; 4.23 in the data set on biotinyl-Ile-oxazolone; 8.26 in the data set on biotinyl-Trp-oxazolone; 5.13 with biotinyl-Val-oxazolone.
In the case of “AUUCACCAAGGUCAUGGGGUG [Fam2.2 aminoacylation ribozyme variant]”, the self-aminoacylation with biotinyl-Leu-oxazolone was 12.7; in the data set with biotinyl-Met-oxazolone it was 9.1; in the data set on biotinyl-Phe-oxazolone, 77.3; in the data set with biotinyl-Ile-oxazolone, 6.16; in the data set on biotinyl-Trp-oxazolone, 8.64; in the data set with biotinyl-Val-oxazolone, 5.88.
